# The other results are listed elsewhere or left out. These are further read-outs of the screen, such as a control signal, another cell line or another target. No call is given for them. Compounds called inactive in the main read-out are mostly missing here. Potencies come from curve fits of mixed quality, noted in brackets.
# Experiment: qHTS Assay for Lipid Storage Modulators in Drosophila S3 Cells;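 as to cell number change: cells counted by Cell Tracker Red CMTPX staining in the red channel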
# Conditions: BODIPY lipid droplet fluorescence, 18-24 h; for cell number change: measured here: cell count max response, cells fed with added oleic acid
# Method in brief: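 Drosophila S3 cells loaded with oleic acid (400 uM, as added) and compounds at several concentrations; lipid droplets imaged by 488-nm laser-scanning cytometry, 500–530 nm intensity and object ratio to cell channel. Percent activity normalized to 20 uM Triacsin C.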
# [1] = measured here: cell number channel AC50, cells fed with added oleic acid
# [2] = measured here: lipid fluorescence (Fed channel) AC50, cells fed with added oleic acid
Structure (SMILES),cell number change,AC50 [1],AC50 [2]
CCn1c(O)c(/C=N/NC(=O)c2ccncc2)c(=O)[nH]c1=S,133%,"16.4 µM [rising, single point]","18.4 µM [rising, partial curve, poor fit]"
CCOC(=O)c1c(C)n(Cc2ccco2)c2ccc(OC)cc12,-37.3%,"0.92 µM [falling, full curve]",
CC[C@@]1(O)C(=O)OCc2c1cc1n(c2=O)Cc2cc3c(NC(=O)CN)cccc3nc2-1,11.8%,,"0.231 µM [rising, full curve, poor fit]"
CC/C(=N\NC(=O)c1ccccc1)c1c(O)n(C2CCCCC2)c(=O)[nH]c1=O,-13.1%,,"29.1 µM [falling, single point]"
Cc1c2ccncc2c(C)c2c1[nH]c1ccccc12,-40.4%,"11.6 µM [falling, partial curve]","18.4 µM [falling, partial curve, poor fit]"
CN1C(=O)C(=Cc2ccc(N3CCOCC3)c([N+](=O)[O-])c2)C(=O)N(C)C1=O,104%,"18.4 µM [rising, single point]",
O=C(N/N=C/c1c(O)n(C2CCCCC2)c(=S)[nH]c1=O)c1ccccc1O,-8.4%,,"0.82 µM [falling, full curve]"
C=CCn1c(O)c(/C=N/N2CCOCC2)c(=O)[nH]c1=S,-28.7%,,"6.51 µM [falling, single point]"
O=C1NC(=O)N(CCC2=CCCCC2)C(=O)/C1=C/c1cccs1,-12.5%,,"0.92 µM [falling, full curve, poor fit]"
O=C(CN1CCN(c2ccccc2F)CC1)Nc1cccnc1Cl,-14.1%,,"23.1 µM [falling, single point]"
O=C(COc1ccccc1)NCCc1cnc[nH]1,24.6%,,"2.06 µM [rising, single point]"
Cc1ccc2c(c1)C1CN(C)CCC1N2C(=O)c1cn(-c2ccccc2)nc1-c1ccccc1 (stereo not given),20.1%,,"0.116 µM [falling, full curve, poor fit]"
C=Cn1ccnc1P(=S)(c1nccn1C=C)c1nccn1C=C,-33.7%,"6.51 µM [falling, partial curve, poor fit]","3.66 µM [falling, partial curve, poor fit]"
O=P(O)(O)COc1ccccc1O,0.746%,,
CCOC(=O)C(O)(c1ccc(NC(=O)c2ccc(Cl)c(Cl)c2)cc1)C(F)(F)F (stereo not given),-34.8%,"32.6 µM [falling, single point]","29.1 µM [falling, single point]"
COc1ccc(-n2c(/C=C/c3ccc(O)c(OC)c3)nc3ccccc3c2=O)cc1,-34.4%,"18.4 µM [falling, partial curve]","29.1 µM [falling, single point]"
CCCCn1c(=O)c(C(=O)Nc2ccccc2S(N)(=O)=O)c(O)c2ccccc21,-20.6%,,"11.6 µM [rising, partial curve]"
CCC(=NCCc1ccccc1)c1c(O)n(C)c(=O)n(C)c1=O,15.6%,,"0.517 µM [rising, partial curve]"

Structure (SMILES),cell number change,AC50 [1],AC50 [2]
COc1cccc(C(=O)C2CCCN(Cc3ccc(F)cc3)C2)c1 (stereo not given),,,"29.1 µM [rising, single point]"
N#CC[N+]1(CCCNP2(=O)C=C(c3ccccc3)OC(c3ccccc3)=C2)CCOCC1,-25.6%,"1.64 µM [falling, partial curve]","1.16 µM [falling, full curve, poor fit]"
COC(=O)C1=Nc2ccccc2/C1=C\c1c(O)n(C)c(=O)n(C)c1=O,,,"0.0731 µM [rising, full curve, poor fit]"
COc1cc(/C=C2\C(=O)NC(=O)N(c3ccccc3)C2=O)c([N+](=O)[O-])cc1OC,-10.4%,,
CCCCc1ccc2[nH]cc(CCN)c2c1,-8.45%,"0.259 µM [falling, full curve, poor fit]",
O=C(c1ccc(CNS(=O)(=O)c2ccccc2)cc1)N1CCC2(CC1)OCCO2,7.85%,,
c1ccc(C2OCCN3CCCCC23)cc1 (stereo not given),3.12%,,"5.17 µM [falling, full curve, poor fit]"
CCOC(=O)c1ccc(N2C(=O)CC(N3CCC(C#N)(c4ccccc4)CC3)C2=O)cc1 (stereo not given),,"3.26 µM [rising, single point]","6.51 µM [rising, single point]"
O=C(O)COc1ccccc1,13.9%,,"0.651 µM [rising, full curve, poor fit]"
CC(=O)Nc1ccc(C(=O)OCC(=O)Nc2ccc(Cl)cc2C(=O)c2ccccc2)cc1,44.3%,"1.46 µM [rising, full curve]","0.517 µM [rising, partial curve]"
COc1cccc(-c2cc(C(F)(F)F)n3nc(C(=O)N4CCC5(CC4)OCCO5)cc3n2)c1,,"6.51 µM [rising, single point]","6.51 µM [rising, single point]"
CC/C(=N\Nc1ccccc1)c1c(O)n(-c2ccccc2)c(=O)[nH]c1=O,1.31%,,"0.58 µM [rising, full curve]"
O=C1c2ccccc2C(=O)N1Cc1nc2ccccc2c(=O)n1-c1ccccn1,8.02%,,"7.31 µM [rising, partial curve, poor fit]"
CC(=O)Oc1ccccc1C(=O)Nc1ncc([N+](=O)[O-])s1,,"23.1 µM [falling, single point]",
COC(=O)C1=C(c2ccc(F)cc2F)C[C@@H]2CC[C@H]1N2C(=O)NCCNC(C)=O,14.6%,,"0.184 µM [rising, full curve, poor fit]"
Clc1ccc2c(c1)C(c1ccccc1Cl)=NCc1nnc(N3CCN(CCSc4ccccc4)CC3)n1-2,,,"0.461 µM [rising, partial curve, poor fit]"
COc1ccc(CC(=O)N2CCN(C)CC2)cc1OC,-34.6%,"4.11 µM [falling, full curve, poor fit]",

# Only cell number change and AC50 [1], for some of the entries so far:
Structure (SMILES) | cell number change | AC50 [1]
CC(=O)Oc1ccccc1C(=O)Nc1ncc([N+](=O)[O-])s1 |  | 23.1 µM [falling, single point]
COC(=O)C1=C(c2ccc(F)cc2F)C[C@@H]2CC[C@H]1N2C(=O)NCCNC(C)=O | 14.6% | 

# Source: PubChem BioAssay AID2685 (National Center for Advancing Translational Sciences (NCATS), 2010)
